{"source": "patent US20060205626A1", "about": "“Cleaning compound for a medical or dental office” (priority 2005, published 2006)", "origin": "cited, not measured here", "conditions": "aqueous solution", "data": [{"smiles": "O=S(=O)([O-])O[O-].[K+].[K+]", "note": "[Potassium peroxymonosulfate]", "values": [{"measurement": "pH of minimum stability in solution", "result": 9}]}]}
